Results published in the supplement of paper PMC10849652.
The other results are listed elsewhere or left out.

The chains behind the UniProt entries cited, without tags or fusion partners. Where a name states a change or a piece, a line headed by the entry shows the natural chain unless it says otherwise.
UniProt Q9UBR2: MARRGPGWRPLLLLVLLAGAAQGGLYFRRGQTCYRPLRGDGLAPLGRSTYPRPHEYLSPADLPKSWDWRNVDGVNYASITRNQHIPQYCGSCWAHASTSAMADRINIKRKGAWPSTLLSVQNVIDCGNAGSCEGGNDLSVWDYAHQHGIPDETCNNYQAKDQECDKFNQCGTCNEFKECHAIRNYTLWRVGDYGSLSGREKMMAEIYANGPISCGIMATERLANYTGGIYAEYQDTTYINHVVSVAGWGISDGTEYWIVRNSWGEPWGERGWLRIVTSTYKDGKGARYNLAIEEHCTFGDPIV
UniProt Q6UUV7: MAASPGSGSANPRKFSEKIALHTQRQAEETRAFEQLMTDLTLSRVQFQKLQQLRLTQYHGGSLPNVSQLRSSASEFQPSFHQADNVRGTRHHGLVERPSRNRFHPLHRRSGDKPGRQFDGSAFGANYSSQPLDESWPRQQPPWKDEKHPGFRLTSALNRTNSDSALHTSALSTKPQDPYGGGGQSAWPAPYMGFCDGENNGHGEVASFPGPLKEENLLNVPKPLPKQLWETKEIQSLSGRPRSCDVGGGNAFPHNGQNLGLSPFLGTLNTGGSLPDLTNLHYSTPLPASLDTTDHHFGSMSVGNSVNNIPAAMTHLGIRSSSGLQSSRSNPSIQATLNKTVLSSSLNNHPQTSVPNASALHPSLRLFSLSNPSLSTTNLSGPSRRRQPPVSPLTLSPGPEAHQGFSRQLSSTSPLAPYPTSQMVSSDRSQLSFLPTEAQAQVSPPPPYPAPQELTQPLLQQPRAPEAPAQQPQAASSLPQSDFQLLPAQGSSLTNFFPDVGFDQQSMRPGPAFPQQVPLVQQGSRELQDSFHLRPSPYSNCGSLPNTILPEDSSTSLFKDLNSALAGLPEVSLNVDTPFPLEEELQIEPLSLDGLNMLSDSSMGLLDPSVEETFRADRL
UniProt O95715: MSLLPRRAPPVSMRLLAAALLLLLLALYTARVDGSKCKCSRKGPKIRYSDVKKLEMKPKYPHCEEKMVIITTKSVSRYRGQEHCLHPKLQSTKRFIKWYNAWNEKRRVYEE
UniProt P43155: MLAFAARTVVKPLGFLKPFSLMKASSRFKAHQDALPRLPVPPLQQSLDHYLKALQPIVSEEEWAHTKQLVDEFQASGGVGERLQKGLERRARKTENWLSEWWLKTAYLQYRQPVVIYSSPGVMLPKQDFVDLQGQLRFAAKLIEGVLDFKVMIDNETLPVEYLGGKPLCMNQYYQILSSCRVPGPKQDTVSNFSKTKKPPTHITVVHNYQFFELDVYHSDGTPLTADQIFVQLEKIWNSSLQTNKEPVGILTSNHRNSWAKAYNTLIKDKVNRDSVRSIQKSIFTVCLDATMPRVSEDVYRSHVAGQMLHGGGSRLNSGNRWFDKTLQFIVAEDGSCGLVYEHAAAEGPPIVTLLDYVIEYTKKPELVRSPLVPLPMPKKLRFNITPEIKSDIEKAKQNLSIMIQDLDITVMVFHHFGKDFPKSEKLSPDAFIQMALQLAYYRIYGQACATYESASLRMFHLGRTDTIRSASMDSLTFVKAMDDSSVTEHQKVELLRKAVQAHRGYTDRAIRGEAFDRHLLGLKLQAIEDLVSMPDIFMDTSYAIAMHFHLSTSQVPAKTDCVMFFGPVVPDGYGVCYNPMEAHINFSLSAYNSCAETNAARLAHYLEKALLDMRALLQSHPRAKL
UniProt O95196: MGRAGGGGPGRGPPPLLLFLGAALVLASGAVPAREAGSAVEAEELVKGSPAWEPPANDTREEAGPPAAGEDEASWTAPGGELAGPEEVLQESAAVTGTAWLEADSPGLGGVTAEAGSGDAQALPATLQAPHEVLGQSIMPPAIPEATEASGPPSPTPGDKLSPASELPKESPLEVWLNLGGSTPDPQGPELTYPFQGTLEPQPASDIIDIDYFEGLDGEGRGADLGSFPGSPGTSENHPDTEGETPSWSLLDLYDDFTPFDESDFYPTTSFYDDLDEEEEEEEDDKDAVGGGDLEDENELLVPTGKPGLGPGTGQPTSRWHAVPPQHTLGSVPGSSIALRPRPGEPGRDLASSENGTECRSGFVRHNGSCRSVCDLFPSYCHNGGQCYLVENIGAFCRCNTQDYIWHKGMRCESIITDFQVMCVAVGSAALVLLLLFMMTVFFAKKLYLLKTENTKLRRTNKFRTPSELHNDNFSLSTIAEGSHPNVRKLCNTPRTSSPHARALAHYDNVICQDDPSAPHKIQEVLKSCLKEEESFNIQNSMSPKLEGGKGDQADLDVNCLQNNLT
UniProt Q9NXE8: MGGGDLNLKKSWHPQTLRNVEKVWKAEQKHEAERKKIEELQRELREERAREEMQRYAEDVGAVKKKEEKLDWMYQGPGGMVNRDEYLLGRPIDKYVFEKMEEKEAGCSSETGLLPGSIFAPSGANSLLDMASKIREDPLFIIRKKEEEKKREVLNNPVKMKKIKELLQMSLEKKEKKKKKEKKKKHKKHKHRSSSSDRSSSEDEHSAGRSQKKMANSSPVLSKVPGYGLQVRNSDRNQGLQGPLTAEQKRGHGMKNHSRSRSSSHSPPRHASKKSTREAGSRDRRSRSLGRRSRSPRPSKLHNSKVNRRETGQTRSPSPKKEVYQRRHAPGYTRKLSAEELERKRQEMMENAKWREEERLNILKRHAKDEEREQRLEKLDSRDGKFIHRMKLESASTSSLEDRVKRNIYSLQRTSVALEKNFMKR
UniProt Q9UBT7: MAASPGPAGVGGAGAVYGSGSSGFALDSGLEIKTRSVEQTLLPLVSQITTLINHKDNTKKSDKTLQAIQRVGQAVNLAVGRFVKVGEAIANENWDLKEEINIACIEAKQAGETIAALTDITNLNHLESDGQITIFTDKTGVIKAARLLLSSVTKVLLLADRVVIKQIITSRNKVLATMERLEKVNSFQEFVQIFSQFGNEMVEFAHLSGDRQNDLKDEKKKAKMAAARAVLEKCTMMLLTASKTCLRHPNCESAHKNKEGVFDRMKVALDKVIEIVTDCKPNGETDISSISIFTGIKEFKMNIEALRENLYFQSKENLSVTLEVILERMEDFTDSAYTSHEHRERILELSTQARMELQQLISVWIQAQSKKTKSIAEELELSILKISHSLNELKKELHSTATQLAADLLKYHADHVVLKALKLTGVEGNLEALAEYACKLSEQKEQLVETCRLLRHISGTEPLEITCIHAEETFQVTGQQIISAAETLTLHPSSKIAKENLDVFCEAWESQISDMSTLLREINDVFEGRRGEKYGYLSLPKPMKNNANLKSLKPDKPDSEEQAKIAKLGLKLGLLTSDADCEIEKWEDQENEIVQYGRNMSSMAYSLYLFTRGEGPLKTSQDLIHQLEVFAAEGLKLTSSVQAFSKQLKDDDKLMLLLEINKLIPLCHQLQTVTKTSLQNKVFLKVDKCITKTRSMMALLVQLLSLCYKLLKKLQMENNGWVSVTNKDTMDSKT
UniProt Q9H467: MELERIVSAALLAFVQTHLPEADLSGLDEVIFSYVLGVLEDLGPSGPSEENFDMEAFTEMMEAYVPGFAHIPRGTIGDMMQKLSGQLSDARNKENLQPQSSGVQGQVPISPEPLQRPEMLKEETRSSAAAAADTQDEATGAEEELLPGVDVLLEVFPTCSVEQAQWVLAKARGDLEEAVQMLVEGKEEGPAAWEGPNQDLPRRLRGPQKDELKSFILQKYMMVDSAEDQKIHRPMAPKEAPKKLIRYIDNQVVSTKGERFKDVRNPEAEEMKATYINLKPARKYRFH
UniProt Q6GPI1, whole entry, looked up: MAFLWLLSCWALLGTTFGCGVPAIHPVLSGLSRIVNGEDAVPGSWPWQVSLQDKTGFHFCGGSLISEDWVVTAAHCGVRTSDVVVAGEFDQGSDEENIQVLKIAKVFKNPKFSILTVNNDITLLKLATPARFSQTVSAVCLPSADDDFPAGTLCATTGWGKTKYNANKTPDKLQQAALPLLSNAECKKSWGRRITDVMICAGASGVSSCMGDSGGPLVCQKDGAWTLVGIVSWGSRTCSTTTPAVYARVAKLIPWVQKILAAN
UniProt P01036: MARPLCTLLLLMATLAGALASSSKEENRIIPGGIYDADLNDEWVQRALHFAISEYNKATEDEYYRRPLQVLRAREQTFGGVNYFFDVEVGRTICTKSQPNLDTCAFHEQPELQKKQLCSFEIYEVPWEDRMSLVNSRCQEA
UniProt Q2NKJ3: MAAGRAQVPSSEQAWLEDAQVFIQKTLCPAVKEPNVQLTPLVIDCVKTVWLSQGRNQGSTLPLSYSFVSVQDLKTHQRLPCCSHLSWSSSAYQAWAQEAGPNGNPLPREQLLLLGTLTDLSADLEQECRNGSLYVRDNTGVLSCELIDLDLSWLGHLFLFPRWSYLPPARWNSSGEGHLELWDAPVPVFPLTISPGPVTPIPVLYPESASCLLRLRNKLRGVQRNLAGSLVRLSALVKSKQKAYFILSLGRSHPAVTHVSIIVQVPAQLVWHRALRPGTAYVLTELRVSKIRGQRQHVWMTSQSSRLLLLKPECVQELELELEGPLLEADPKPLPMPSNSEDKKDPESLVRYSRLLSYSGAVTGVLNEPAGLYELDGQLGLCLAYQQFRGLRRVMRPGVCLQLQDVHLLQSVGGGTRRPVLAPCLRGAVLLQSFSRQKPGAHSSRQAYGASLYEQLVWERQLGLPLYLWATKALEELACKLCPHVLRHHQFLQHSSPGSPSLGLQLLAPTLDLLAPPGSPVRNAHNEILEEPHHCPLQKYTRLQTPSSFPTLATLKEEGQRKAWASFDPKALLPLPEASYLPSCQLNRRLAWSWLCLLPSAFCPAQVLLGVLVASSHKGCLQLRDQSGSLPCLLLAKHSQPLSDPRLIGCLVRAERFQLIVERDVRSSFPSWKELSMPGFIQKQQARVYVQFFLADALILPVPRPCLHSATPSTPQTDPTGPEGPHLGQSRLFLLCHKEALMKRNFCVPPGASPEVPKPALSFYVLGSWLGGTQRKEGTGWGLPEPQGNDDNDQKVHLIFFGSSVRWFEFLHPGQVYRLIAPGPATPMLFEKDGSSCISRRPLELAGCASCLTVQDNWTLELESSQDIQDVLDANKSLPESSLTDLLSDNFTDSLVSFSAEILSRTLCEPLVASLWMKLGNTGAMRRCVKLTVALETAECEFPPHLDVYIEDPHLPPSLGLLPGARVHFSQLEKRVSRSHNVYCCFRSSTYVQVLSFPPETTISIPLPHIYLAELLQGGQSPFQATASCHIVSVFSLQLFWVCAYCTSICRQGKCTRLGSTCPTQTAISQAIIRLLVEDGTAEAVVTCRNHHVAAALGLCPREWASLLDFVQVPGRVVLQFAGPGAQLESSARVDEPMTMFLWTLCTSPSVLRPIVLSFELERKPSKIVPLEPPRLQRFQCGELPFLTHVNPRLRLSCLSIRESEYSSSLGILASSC
UniProt P78368: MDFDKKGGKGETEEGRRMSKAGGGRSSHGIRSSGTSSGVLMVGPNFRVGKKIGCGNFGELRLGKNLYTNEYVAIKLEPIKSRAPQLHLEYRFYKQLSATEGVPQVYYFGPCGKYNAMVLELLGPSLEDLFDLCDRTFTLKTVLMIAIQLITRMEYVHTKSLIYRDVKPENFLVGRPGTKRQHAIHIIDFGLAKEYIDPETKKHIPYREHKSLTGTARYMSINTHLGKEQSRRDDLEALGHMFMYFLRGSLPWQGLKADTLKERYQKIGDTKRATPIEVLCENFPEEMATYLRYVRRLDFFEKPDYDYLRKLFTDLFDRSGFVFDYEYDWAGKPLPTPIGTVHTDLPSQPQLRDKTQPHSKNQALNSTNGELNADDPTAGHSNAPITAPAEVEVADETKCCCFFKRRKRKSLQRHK
UniProt P0C2W7: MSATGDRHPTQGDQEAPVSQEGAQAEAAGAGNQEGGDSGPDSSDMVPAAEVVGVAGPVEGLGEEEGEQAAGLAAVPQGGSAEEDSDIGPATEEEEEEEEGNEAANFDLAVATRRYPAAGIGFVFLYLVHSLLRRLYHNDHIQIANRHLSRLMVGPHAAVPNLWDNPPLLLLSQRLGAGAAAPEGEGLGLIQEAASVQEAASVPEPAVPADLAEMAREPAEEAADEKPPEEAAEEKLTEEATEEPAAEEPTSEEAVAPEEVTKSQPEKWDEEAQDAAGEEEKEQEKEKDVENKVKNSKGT
UniProt Q49AN0: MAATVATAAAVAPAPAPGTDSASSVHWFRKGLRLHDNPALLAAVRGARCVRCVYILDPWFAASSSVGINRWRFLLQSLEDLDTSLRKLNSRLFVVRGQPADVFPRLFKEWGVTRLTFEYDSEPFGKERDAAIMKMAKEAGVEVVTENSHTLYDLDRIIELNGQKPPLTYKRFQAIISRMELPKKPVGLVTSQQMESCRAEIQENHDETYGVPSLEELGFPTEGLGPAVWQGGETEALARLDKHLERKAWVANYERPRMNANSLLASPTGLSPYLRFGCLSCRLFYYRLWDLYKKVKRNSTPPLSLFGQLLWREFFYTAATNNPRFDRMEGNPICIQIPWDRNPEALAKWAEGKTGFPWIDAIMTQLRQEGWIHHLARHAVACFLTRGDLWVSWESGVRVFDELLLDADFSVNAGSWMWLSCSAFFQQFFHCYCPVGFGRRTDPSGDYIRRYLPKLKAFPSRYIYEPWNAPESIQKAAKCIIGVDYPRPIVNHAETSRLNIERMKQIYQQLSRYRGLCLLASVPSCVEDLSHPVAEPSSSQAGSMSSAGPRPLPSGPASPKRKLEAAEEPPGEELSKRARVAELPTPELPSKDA

Tests used:
Test in all cases: log2 fold change, soluble protein after heating vs DMSO (PISA); higher = thermal stabilisation; K562 lysate, 10 uM; active = over 0.2 and 3.5 SD of the protein, either way, in both replicates (recomputed)
[1] = compound: CCCS(=O)(=O)Nc1ccc(F)c(C(=O)c2c[nH]c3ncc(-c4ccc(Cl)cc4)cc23)c1F [vemurafenib]
In short: (§1)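 Log-two fold change in thermal stability relative to solvent controls is reported from duplicates. For each sample, crude K562 extract from dounce-homogenised pellets in PBS pH 7.4 with 1 mM MgCl2, at 1 mg/mL protein, was treated with 10 μM compound for 30 min. Aliquots heated for 3 min across 48°C-58°C were pooled, brought to 0.5% NP-40 at 4°C and cleared at 21,000xg for 90 min. The supernatant was quantified by TMTpro 16plex LC-MS/MS with channel sums equalised.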

[2] = compound: CCCS(=O)(=O)Nc1ccc(F)c(C(=O)c2c[nH]c3ncc(Cl)cc23)c1F
In short: as §1

[3] = compound: CCN(CCCOc1ccc2c(Nc3cc(CC(=O)Nc4cccc(F)c4)[nH]n3)ncnc2c1)CCOP(=O)(O)O [barasertib]
In short: as §1

[4] = compound: CC[C@@H]1C(=O)N(C)c2cnc(Nc3ccc(C(=O)NC4CCN(C)CC4)cc3OC)nc2N1C1CCCC1
In short: as §1

[5] = compound: CC[C@@H]1C(=O)N(C)c2cnc(Nc3ccc(C(=O)N[C@H]4CC[C@H](N5CCN(CC6CC6)CC5)CC4)cc3OC)nc2N1C(C)C [volasertib]
In short: as §1

[6] = compound: CCn1c(C(=O)N(C2CC2)C2CC2)cc2c3c(ncn3C)c(Nc3cc(C)n(C)n3)nc21
In short: as §1

[7] = compound: CCn1cc(-c2ccnc3[nH]c(-c4cccc(CN(C)C)c4)cc23)c(-c2ccc(NC(=O)N(C)C)cc2)n1
In short: as §1

[8] = compound: CN1CCC(CNc2ccc3ncc(-c4cccc(OC(F)(F)F)c4)n3n2)CC1
In short: as §1

[9] = compound: CN1CCN(CCOc2cc(OC3CCOCC3)c3c(Nc4c(Cl)ccc5c4OCO5)ncnc3c2)CC1 [saracatinib]
In short: as §1

[10] = compound: CN1CCN(c2nc(C3=C(c4c[nH]c5ccccc45)C(=O)NC3=O)c3ccccc3n2)CC1 [sotrastaurin]
In short: as §1

Row | Target | log2 fold change [1] | log2 fold change [2] | log2 fold change [3] | log2 fold change [4] | log2 fold change [5] | log2 fold change [6] | log2 fold change [7] | log2 fold change [8] | log2 fold change [9] | log2 fold change [10]
1 | CTSZ (UniProt Q9UBR2) | inactive: 0.014 | inactive: -0.007 | inactive: -0.022 | inactive: -0.026 | inactive: 0.014 | inactive: 0.039 | inactive: -0.084 | inactive: 0.056 | inactive: -0.102 | inactive: 0.076
2 | CWC15 (UniProt Q9P013) | inactive: 0.011 | inactive: -0.02 | inactive: 0.004 | inactive: 0.068 | inactive: 0.073 | inactive: -0.03 | inactive: -0.033 | inactive: -0.009 | inactive: -0.026 | inactive: -0.026
3 | CSDE1 isoform 4 (UniProt O75534) | inactive: -0.002 | inactive: 0.004 | inactive: 0.01 | inactive: -0.083 | inactive: -0.041 | inactive: 0.028 | inactive: 0.069 | inactive: -0.066 | inactive: 0.003 | inactive: -0.018
4 | CUL5 (UniProt Q93034) | inactive: -0.015 | inactive: -0.006 | inactive: 0.01 | inactive: -0.009 | inactive: 0.012 | inactive: -0.002 | inactive: -0.079 | inactive: 0.038 | inactive: -0.017 | inactive: 0.015
5 | CUX1 isoform 3 (UniProt P39880) | inactive: 0.059 | inactive: -0.012 | inactive: -0.011 | inactive: 0.028 | inactive: -0.004 | inactive: -0.006 | inactive: 0.107 | inactive: -0.152 | inactive: 0.018 | inactive: 0.029
6 | CSPP1 (UniProt Q1MSJ5) | inactive: 0.03 | active: -0.505 | inactive: 0.026 | inactive: 0.057 | inactive: 0.125 | inactive: 0.05 | inactive: 0.029 | inactive: -0.006 | inactive: -0.049 | inactive: -0.046
7 | CTPS1 (UniProt P17812) | inactive: -0.008 | inactive: 0.016 | inactive: -0.024 | inactive: -0.065 | inactive: -0.04 | inactive: 0.026 | inactive: -0.041 | inactive: -0.011 | inactive: 0.007 | inactive: 0.021
8 | CTU1 (UniProt Q7Z7A3) | inactive: -0.01 | inactive: 0.003 | inactive: -0.03 | inactive: 0.037 | inactive: 0.012 | inactive: -0.067 | inactive: -0.026 | inactive: -0.005 | inactive: 0.017 | inactive: 0.01
9 | CSTF2 (UniProt P33240) | inactive: 0.011 | inactive: -0.015 | active: 0.27 | inactive: 0.062 | inactive: -0.012 | inactive: -0.037 | inactive: -0.053 | inactive: 0.042 | inactive: 0.007 | inactive: 0.038
10 | CTBS (UniProt Q01459) | inactive: 0.051 | inactive: -0.04 | inactive: 0.059 | inactive: 0.025 | inactive: -0.054 | inactive: -0.059 | inactive: -0.006 | inactive: -0.008 | inactive: -0.01 | inactive: 0.006
11 | CUL4A (UniProt Q13619) | inactive: -0.017 | inactive: 0.022 | inactive: 0.017 | inactive: 0.005 | inactive: -0.031 | inactive: -0.049 | inactive: -0.035 | inactive: 0.01 | inactive: -0.01 | inactive: 0
12 | CRTC3 (UniProt Q6UUV7) | inactive: 0.041 | – | inactive: 0.092 | inactive: 0.038 | – | inactive: 0.074 | – | – | inactive: 0.043 | inactive: -0.049
13 | CXCL14 (UniProt O95715) | inactive: 0.252 | – | inactive: 0.079 | inactive: 0.189 | – | – | – | – | – | –
14 | CRAT (UniProt P43155) | inactive: 0.172 | inactive: -0.085 | inactive: 0.063 | – | inactive: 0.073 | inactive: -0.013 | – | – | inactive: 0.143 | inactive: 0.037
15 | CSPG5 isoform 2 (UniProt O95196) | inactive: -0.28 | – | inactive: -0.038 | – | – | inactive: 0.113 | – | – | – | inactive: -0.006
16 | CWC25 (UniProt Q9NXE8) | inactive: 0.071 | inactive: -0.046 | inactive: 0.188 | inactive: 0.113 | inactive: 0.069 | – | inactive: 0.047 | inactive: -0.022 | – | inactive: -0.036
17 | CRYL1 (UniProt Q9Y2S2) | inactive: 0.365 | inactive: 0.045 | – | – | inactive: 0.074 | – | – | – | inactive: -0.036 | inactive: 0.127

Single records, from the list above. Order of values: log2 fold change [1] | log2 fold change [2] | log2 fold change [3] | log2 fold change [4] | log2 fold change [5] | log2 fold change [6] | log2 fold change [7] | log2 fold change [8] | log2 fold change [9] | log2 fold change [10]
CTPS1 (UniProt P17812) in the list: inactive: -0.008 | inactive: 0.016 | inactive: -0.024 | inactive: -0.065 | inactive: -0.04 | inactive: 0.026 | inactive: -0.041 | inactive: -0.011 | inactive: 0.007 | inactive: 0.021
CUX1 isoform 3 (UniProt P39880) in the list: inactive: 0.059 | inactive: -0.012 | inactive: -0.011 | inactive: 0.028 | inactive: -0.004 | inactive: -0.006 | inactive: 0.107 | inactive: -0.152 | inactive: 0.018 | inactive: 0.029

Later entries

Row | Target | log2 fold change [1] | log2 fold change [2] | log2 fold change [3] | log2 fold change [4] | log2 fold change [5] | log2 fold change [6] | log2 fold change [7] | log2 fold change [8] | log2 fold change [9] | log2 fold change [10]
18 | CTNNAL1 (UniProt Q9UBT7) | inactive: 0.047 | inactive: 0.052 | – | inactive: -0.066 | inactive: -0.079 | – | inactive: -0.192 | inactive: -0.007 | inactive: -0.382 | inactive: -0.08
19 | CSNK1G3 (UniProt Q9Y6M4) | inactive: -0.004 | inactive: -0.053 | inactive: -0.028 | – | inactive: 0.002 | inactive: 0.039 | inactive: -0.095 | inactive: 0.065 | inactive: 0.043 | inactive: 0.035
20 | CTNS isoform 2 (UniProt O60931) | inactive: 0.058 | – | inactive: 0.071 | inactive: 0.056 | – | inactive: 0.108 | inactive: -0.314 | inactive: 0.257 | inactive: -0.184 | inactive: -0.07
21 | CUX1 isoform 2 (UniProt Q13948) | inactive: 0.013 | inactive: 0.084 | – | inactive: -0.087 | inactive: -0.001 | inactive: 0.019 | inactive: 0.06 | inactive: -0.34 | inactive: -0.054 | inactive: 0.081
22 | CUEDC2 (UniProt Q9H467) | inactive: 0.06 | inactive: 0.001 | inactive: 0.026 | inactive: 0.038 | inactive: 0.027 | inactive: -0.084 | active: 0.694 | inactive: -0.07 | inactive: 0.002 | inactive: 0
23 | CTRB2 (UniProt Q6GPI1) | inactive: 0.09 | inactive: -0.009 | – | inactive: 0.04 | inactive: -0.011 | – | inactive: -0.468 | inactive: 0.395 | – | –
24 | CSNK1D (UniProt P48730) | inactive: -0.04 | inactive: -0.044 | inactive: -0.092 | – | inactive: -0.191 | inactive: 0.025 | – | inactive: 0.255 | inactive: -0.039 | inactive: 0.058
25 | CST4 (UniProt P01036) | – | inactive: -0.125 | inactive: -0.099 | inactive: 0.006 | inactive: -0.14 | inactive: -0.005 | – | – | inactive: -0.248 | –
26 | CRTC2 (UniProt H0YDQ8) | inactive: 0.065 | – | – | – | – | inactive: 0.001 | – | – | – | –
27 | CTC1 (UniProt Q2NKJ3) | inactive: 0.008 | – | inactive: 0.165 | inactive: 0.09 | – | inactive: -0.06 | inactive: -0.027 | inactive: -0.004 | inactive: 0.121 | inactive: 0.011
28 | CRYM-AS1 (UniProt A6NIL9) | inactive: -0.016 | inactive: -0.127 | inactive: 0 | inactive: 0.366 | inactive: 0.345 | inactive: -0.349 | inactive: -0.188 | inactive: 0.473 | – | inactive: -0.019
29 | CTF1 (UniProt Q16619) | inactive: 0.082 | inactive: -0.21 | – | inactive: 0.374 | inactive: -0.071 | inactive: 0.314 | inactive: 0.015 | inactive: -0.133 | inactive: 0.036 | inactive: 0.112
30 | CTBP1 (UniProt Q13363) | inactive: 0.007 | inactive: 0.022 | inactive: 0.038 | inactive: 0.031 | inactive: 0.001 | inactive: 0.02 | inactive: -0.054 | inactive: 0.019 | inactive: -0.027 | inactive: -0.08
31 | CSNK1G2 (UniProt P78368) | inactive: -0.004 | – | inactive: -0.034 | – | inactive: 0.015 | inactive: 0.104 | inactive: -0.366 | inactive: 0.273 | inactive: -0.02 | inactive: 0.146
32 | CT47B1 (UniProt P0C2W7) | inactive: 0.111 | inactive: -0.016 | inactive: -0.099 | inactive: -0.014 | inactive: -0.04 | inactive: 0.07 | – | – | inactive: 0 | inactive: 0.088
33 | CRY2 (UniProt Q49AN0) | inactive: 0.13 | – | – | – | – | – | inactive: -0.04 | inactive: 0.075 | – | –
